These are yes or no findings as the source states them, for the method shown.

One molecule from publication PMC4972365 can be followed below.

In assay [1] the target is receiver domain (RD) of Arabidopsis thaliana ETHYLENE RESPONSE1 (ETR1), residues 605-738 (Arabidopsis thaliana) (UniProt P49333). The assay can be described thus: NMR titration; ~0.1 mM ETR1-RD, 40 mM Tris-HCl pH 7.0, 150 mM NaCl, with 10 mM Mg2+ and/or 3 mM BeF3-; both purified.
For assay [2] the target is unchanged. The experiment in a line: SEC; FPLC size-exclusion chromatography, Sephacryl S-100, 40 mM Tris-HCl pH 7.0, 150 mM NaCl, 1 mM EDTA; with SDS-PAGE; both purified.
Assay [3] shares this target. The experiment in a line: NMR 15N relaxation (rotational correlation time from R1 and R2); 25°C, 600.13 MHz; Tris buffer; HEPES buffer also did not give a dimer; both purified.

B1: receiver domain (RD) of Arabidopsis thaliana ETHYLENE RESPONSE1 (ETR1), residues 605-738 (domain or fragment, UniProt P49333 605-738)
chain: SNFTGLKVLVMDENGVSRMVTKGLLVHLGCEVTTVSSNEECLRVVSHEHKVVFMDVCMPGVENYQIALRIHEKFTKQRHQRPLLVALSGNTDKSTKEKCMSFGLDGVLLKPVSLDNIRDVLSDLLEPRVLYEGM
With B1, the binding result is reported as “no binding (tested: ~0.1 mM)” in assay [1], “no binding” in assay [2] and “no binding” in assay [3].
